# Library screen at single concentrations

Measurements from “University of Dundee, Small-Polar-MMV Screening Library” (2021), ChEMBL document CHEMBL3988442.

Mtb glucose medium: 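Phenotypic screen: M. tuberculosis growth, glucose 7H9 medium, 3 days; the read-out is not stated. Concentration: 50 µM. Direction is inferred from retests: higher values go with more growth inhibition. About 69,000 compounds were tested under these conditions; 1.1% (about 760) showed 50% or more at least once.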
Mtb cholesterol medium: 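Phenotypic screen: M. tuberculosis growth, cholesterol and DPPC medium, 4 days; the read-out is not stated. Compounds at 50 µM. The record gives no direction; compounds that gave an IC50 in retests scored well above the rest, so higher reads as more growth inhibition. Size under these conditions: about 69,000 compounds, about 370 of them at 50% or above in at least one test.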

Results are given as percent effect. The record does not define 0% and 100%; most values in the screen are far below 50% and negative numbers occur (in some assays of this library far below -100). This is an unselected part of the compounds tested. Two or more numbers in one place are separate tests of the same structure; such repeats can differ widely.

structure,Mtb glucose medium,Mtb cholesterol medium
Cc1cccc(C(C)C)c1NC(=O)NCCN(C(C)C)C(C)C,0.7312%,-2.792%
Cc1nc(CN2CCC23CCN(C(=O)c2ccncc2)CC3)cs1,-4.229% & -36.42%,-8.307%
Cc1csc(C(C)(C)NCCOc2ccc(CC#N)cc2)n1,-0.02349%,-1.484%
CCOCC1CN(CCN2CCCCC2)Cc2cnn(C)c21.O=C(O)C(F)(F)F.O=C(O)C(F)(F)F.O=C(O)C(F)(F)F (centres unmarked),-10.42%,-18.32%
[H][C@]12CC[C@]([H])(CN(C(=O)c3nnc4n3CCCCC4)C1)N(C)C2=O,8.581%,23.27%
[H][C@@]12CCN(Cc3cnn(C)c3)[C@]1([H])CC[C@@H](C(=O)NCCOC)O2,-3.122%,13.33%
CN1CCOCC2(CCN(Cc3ccc[nH]3)CC2)C1.O=C(O)C(F)(F)F.O=C(O)C(F)(F)F,-47.22% & -10.13%,-26.24%
CC(C)Cc1cc(-c2cc(-c3ccc[nH]3)nc(N)c2C#N)n[nH]1,-1.439%,2.282%
CC(C)(C)NC(=O)N1CCN2C(=O)OCC2C1 (centres unmarked),-1.486% & -8.452%,0.2399%
CC(C)(C)c1coc([C@@H]2COCCN2CC2CC2)n1,25.4% & 0.92%,17.71%
COCC(=O)N1CCC2(CCC(C(=O)N3CCCC3)O2)CC1 (centres unmarked),-43.96%,-6.756%
Cc1ccc(S(=O)(=O)NCCNC(=O)c2ccoc2)cc1F,-4.629%,-22.49%
Cc1c[nH]nc1C1CCCN(C(=O)Cn2cccn2)C1 (centres unmarked),-8.764%,3.624%
COCCn1cc(C(=O)N2CCCC2c2cccs2)c2ccccc21 (centres unmarked),37.59%,-4.375%
CC(C)c1nc(CN(C)C(=O)c2ccc3c(c2)OCO3)cs1,16.71%,16.61%
O=C(c1cccc(-c2ncc[nH]2)c1)N1CCC(N2CCCC(O)C2)CC1 (centres unmarked),-9.664%,-12%
CNc1cc(C(=O)N2CCOC(C(=O)NC3CCCC3)C2)ccn1 (centres unmarked),-24.64%,-31.55%
CSC1(CNC(=O)N(C)Cc2sccc2C)CCOCC1,-1.262% & -29.04%,-19.51%
Fc1cc(Cl)cnc1N1CCCC(c2nccn2Cc2ccncc2)C1 (centres unmarked),-2.742%,-2.938%
CN(C)C(=O)c1ccc2c(c1)N(C)C(CC(=O)NCCC(C)(C)C)CO2 (centres unmarked),-3.993% & 22.56%,-3.586%
Cc1cnn(CC2CCCN2C(=O)c2cccc3c2OCO3)c1 (centres unmarked),-10.37%,11.37%
COC(=O)C(C)(C)NC(=O)c1cc2sc(N(C)C)nc2s1,-16.46%,7.089%
O=C(O)C(F)(F)F.O=C1CC(c2ccccc2)C2(CCN(C(=O)c3ccncc3F)CC2)N1 (centres unmarked),-5.401%,-3.842%
Cc1n[nH]c(C)c1C1CCCN1C(=O)c1coc(Br)c1 (centres unmarked),4.479% & -1.457%,7.962% & -11.18%
Cc1cc(C(=O)N2CCCC(C(=O)c3cccs3)C2)c(=O)[nH]c1C (centres unmarked),0.6976%,-16.54%
O=C(NCC(O)c1ccc(Cl)s1)c1ccoc1 (centres unmarked),3.464% & 13.58%,10%
CCc1c(NCc2ccncc2)cnn1CC(C)C,1.396% & 0.2551%,9.963%
Fc1ccc(-n2cccn2)c(CN2CCCCC2CCn2ccnc2)c1 (centres unmarked),22.08%,14.47%
COc1ccc(-c2cc(C(=O)N3N=C(C)CC3(O)C(F)(F)F)[nH]n2)cc1 (centres unmarked),-8.859%,-18.19%
CCN1CCN(c2ncnc3c2CCN(C(=O)C2CC2)C3)CC1,3.616% & 0.9609%,-23.03%
CCC(NC(=O)c1ccc(COC)o1)c1nc(C(F)(F)F)cs1 (centres unmarked),13.69% & 1.481%,2.624%
Cc1ncncc1C(=O)N1CCCN(Cc2nccn2C(C)C)CC1,-31.89% & -1.144%,-11.26%
Cc1ccc(C(=O)N(C)Cc2ccc(Br)o2)c(=O)[nH]1,-13.15%,-5.205%
CSCc1noc(CN2CCC3(CC2)CC(=O)N(CC(C)C)C3)n1,5.175% & -15%,-4.627%
COc1cc(NC(=O)NCc2ccccn2)cc(OC)c1,12.24% & -3.461%,-4.683%
CCOCC(=O)N1CCC2(CC1)COCCN2CCOC.O=C(O)C(F)(F)F,-30.71% & -9.78%,-7.319%
COc1ccc(S(=O)(=O)NCC(N)c2ccccc2)c(C)c1.Cl (centres unmarked),4.95%,-1.006%
CN(Cc1cccnc1)Cc1cncc2c1CCN(c1ccccn1)C2.Cl.Cl.Cl,-16.14%,-28.35%
CCn1ccnc1CN1CCCN(C(=O)c2cnc(C)cn2)CC1,-20.58%,-22.59%
Cc1nc(C2CCCN2Cc2ccon2)no1 (centres unmarked),17.51%,-8.049%
Cc1ccc2oc(C(=O)N3CCC(C(=O)N4CCCC4)CC3)cc2n1,-5.273%,8.606%
NC(=O)NC(=O)CN1CCN(CC2CC2)c2ccccc21,-8.955%,-21.41%
Cc1cc(=O)n2nc(CNc3cc(Cl)ccc3C)nc2[nH]1,-7.38%,-12.95%
O=C(CN1C=Nc2ccccc2S1(=O)=O)NCc1ccccc1F,9.319%,-11.42%
Cc1nc(C2CCCCC2)sc1C(=O)O,5.778%,0.09925%
O=C(CN1CCOCS1(=O)=O)NCCc1ccc(Cl)cc1,6.763%,-6.984%
COc1cccc(F)c1C(C)NC(=O)NCCc1ccc(C)nc1 (centres unmarked),18.35%,13.63%
[H][C@@]12CCN(C(=O)c3ccco3)C[C@@]1([H])O[C@H](c1nccs1)C2,-21.63%,-31.41%
CN(Cc1ccccn1)C(=O)c1cc(CN2CCC(O)CC2)on1,-25.68%,-15.99%
COC(=O)CC1CN(Cc2c(Cl)ccc3cccnc23)CCO1 (centres unmarked),23.24%,14.83%
CCC(C)N(C)CCNC(=O)NCc1cccc(-n2cncn2)c1 (centres unmarked),19.27%,7.451%
CCn1ccc(C(=O)N2CCCC2(C)c2nc(C)cc(N(C)C)n2)n1 (centres unmarked),-5.662%,24.18%
O=C(O)c1ccnc(SCC(F)(F)F)c1,-0.492%,-12.64%
N#Cc1ccccc1CN1CCCC(c2nccn2CC2CCC2)C1 (centres unmarked),11.66% & 10.56%,-0.02852%
c1ccc2sc(CN3CCOC(Cn4cncn4)C3)nc2c1 (centres unmarked),11.11%,15.05%
O=C(c1cc(C2CC2)[nH]n1)N1CCN(Cc2ccsc2)CC1,53.94%,16.07%
Cn1cc(CCC(=O)NS(=O)(=O)N2CCCc3ccccc32)cn1,19.46%,-1.684%

Some entries from above, unchanged:

structure,Mtb glucose medium,Mtb cholesterol medium
O=C(O)C(F)(F)F.O=C1CC(c2ccccc2)C2(CCN(C(=O)c3ccncc3F)CC2)N1 (centres unmarked),-5.401%,-3.842%
O=C(O)c1ccnc(SCC(F)(F)F)c1,-0.492%,-12.64%
Cc1cc(C(=O)N2CCCC(C(=O)c3cccs3)C2)c(=O)[nH]c1C (centres unmarked),0.6976%,-16.54%
CCn1ccnc1CN1CCCN(C(=O)c2cnc(C)cn2)CC1,-20.58%,-22.59%